Measured values published in patent publication US9708251B2, “Unsaturated fatty alcohol alkoxylates from natural oil metathesis” (Stepan Company, priority 2012, dated 2017).

Experiment: Fabric cleaning: primary nonionic surfactant for bargain laundry detergent
Conditions: versus Bio-Soft N25-7; wash 90° F.

Row | SMILES | ΔSRI, beef tallow (BT) | ΔSRI, blood/ink/milk on cotton (EMPA 116) | ΔSRI, blueberry on cotton (BC) | ΔSRI, clay on cotton (CC) | ΔSRI, cocoa on cotton (EMPA 112) | ΔSRI, coffee on cotton (COFC) | ΔSRI, dust sebum on cotton (DSC) | ΔSRI, grass on cotton (GC) | ΔSRI, make-up on cotton (EMPA 143) | ΔSRI, red wine on cotton (RWC) | ΔSRI, sebum tefo (ST)
1 | CCC=CCCCCCCCCOCCOCCOCCOCCOCCO (mixture of isomers) [A12-10] | 2.9 | −0.8 | −0.1 | 0.2 | 1.8 | −0.4 | −1.0 | −1.7 | 0.4 | −0.5 | −0.6
2 | CCC=CCCCCCCCCOCCOCCOCCOCCOCCOCCOCCO (mixture of isomers) [A12-13] | 2.6 | −0.9 | −0.8 | 0.3 | −0.3 | 0.2 | −0.3 | −1.3 | −0.1 | 0.6 | –
3 | CCC=CCCCCCCCCOCCOCCOCCOCCOCCOCCOCCOCCOCCO (mixture of isomers) [A12-21] | 4.5 | −0.4 | 0.0 | 0.3 | 1.0 | 0.2 | 0.1 | −1.2 | 0.3 | 0.2 | 0.5
